Consider one molecule from paper PMC12510028, “A biophysical and molecular characterization of the interaction between the Alzheimer risk factor BIN1 and the neuronal scaffold protein p140Cap” (The Journal of Biological Chemistry, 2025).

These are yes or no findings as the source states them, for the method shown. Binding seen in cells or lysates may run through a third protein. Binding can be weak; no strength is given.

Assay [1] concerns the target GST-tagged BIN1-SH3 domain MutA (D23N/D25N/E26Q) (human). Put plainly: pull-down; 25 μg GST or GST-BSH3 (WT or mutant) on glutathione-Sepharose with 0.5 mg of 1% Triton X-100 soluble mouse brain homogenate, 2 h at room temperature; washes with 50 mM KCl, 150 mM NaCl, 1.5% IGEPAL; immunoblot for p140Cap and total tau; only the target purified. (A western blot detects proteins with antibodies after separation by electrophoresis.)

In assay [2] the target is GST-tagged BIN1-SH3 domain MutB (E44Q/E45Q/D47N/E48Q) (human). The assay is described as above.

B1: p140Cap from mouse brain (protein, UniProt Q9QWI6 1-1250)
chain: MQPWQCLRRFALAWWERTAEGRARSPREEVGPRDPGGRGEPDPERSSPPMLSADDAEYPREYRTLGGGGGGGSGGRRFSNVGLVHTSERRHTVIAAQSLEALSGLQKADADRKRDAFMDHLKSKYPQHALALRGQQDRMREQVGGWTVDPVCLLSSLCSHLHGDSTPSGAGQPAQQPNYWSFKTRSSRHTQGAQPGLADQAAKLSYASAESLETMSEAELPLGFSRMNRFRQSLPLSRSASQTKLRSPGVLFLQFGEETRRVHITHEVSSLDTLHALIAHMFPQKLTMGMLKSPNTAILIKDEARNVFYELEDVRDIQDRSIIKIYRKEPLYAAFPGSHLTNGDLRREMVYASRESSPTRRLNNLSPASHLASSSPPPGLPSGLPSGLPSGSPSRSRLSYAGGRPPSYAGSPVHHAAERLGGAPTGQGVSPSPSAILERRDVKPDEDLAGKAGGMVLVKGEGLYADPYGLLHEGRLSLAAAAETHSHTRARAACTSGVPCALSAPTPLPRCSPTWRTRCTRRALAALYGDGYGFRLPPSSPQKLADVSAPSGGPPPPHSPYSGPPSRGSPVRQSFRKDSGSSSVFAESPGGKARSTGSASTAGAPPSELFPGPGERSLVGFGPPVPAKDTETRERMEAMEKQIASLTGLVQSALLRGSEPETPSEKVEGSNGAATPSAPVCGSGSKSSGATPVSGPPPPSASSTPAGQPTAVSRLQMQLHLRGLQNSASDLRGQLQQLRNVQLQNQESVRALLKPTEADVSMRVSEAARRQEDPLQRQRTLVEEERLRYLNDEELITQQLNDLEKSVEKIQRDVAHNHRLMPGPELEEKALVLKQLGETLTELKAHFPGLQSKMRVVLRVEVEAVKFLKEEPQRLDGLLKRCRGVTDTLAQIRRQVDEGMWPPPNNLLNQSPKKVAAETDFSKGLDFEIPPPSPPLNLHELSGPAEGTPLTPKSTNPTKCLDASSKRNTDKAVSVEAAERDWEEKRAALTQYSAKDINRLLEETQAELLKAIPDLDCASKTHPGPAPTPDHKPPKAPHGQKAAPRTEPSGRRGSDELTVPRYRTEKPSKSPPPPPPRRSFPSSHGLTTTRTGEVVVTSKKDSVFIKKAESEELEVQKPQVKLRRAVSEVVRPASTPPIMASAIKDEDDEERIIAELESGGSSVPPMKVVTPGASRLKAAQGPAGSPDKGKHGKQRTEYMRIQAQQQATKPSKEVSGPNETSSPGSEKPSGSRTSIPVLTSFGARNSSISF
In the case of B1, the binding entry in assay [1] and in assay [2] was “binds” throughout.
